According to PMC6102588, “Quaternary Structure, Salt Sensitivity, and Allosteric Regulation of β-AMYLASE2 From Arabidopsis thaliana” (Frontiers in Plant Science, 2018):
Results are given in words; binding and its absence hold for the method and conditions named.

By UniProt entry, the sequences of proteins in these tests, tags left out. Where a name states a change or a piece, a line headed by the entry shows the natural chain unless it says otherwise. Chains listed by the source or under a name are the forms on record and can include a tag or linker.
BAM2 D490R mutant (Interface A) (O65258, form named): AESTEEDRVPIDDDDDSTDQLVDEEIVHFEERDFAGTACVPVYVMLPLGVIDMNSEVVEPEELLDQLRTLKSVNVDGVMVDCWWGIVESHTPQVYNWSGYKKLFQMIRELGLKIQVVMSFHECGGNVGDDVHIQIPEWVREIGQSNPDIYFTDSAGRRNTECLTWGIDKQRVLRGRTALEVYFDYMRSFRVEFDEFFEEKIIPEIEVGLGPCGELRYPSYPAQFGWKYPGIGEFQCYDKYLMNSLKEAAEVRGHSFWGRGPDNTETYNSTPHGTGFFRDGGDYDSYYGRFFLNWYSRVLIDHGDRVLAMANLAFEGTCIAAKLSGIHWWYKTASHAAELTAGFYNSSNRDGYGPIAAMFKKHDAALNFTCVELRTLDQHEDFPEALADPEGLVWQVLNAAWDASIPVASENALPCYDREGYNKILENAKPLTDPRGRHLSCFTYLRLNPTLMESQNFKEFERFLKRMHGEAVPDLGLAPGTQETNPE

Target: BAM2 D490R mutant (Interface A) (Arabidopsis thaliana) (UniProt O65258)
Experiment: SEC-MALS; proteins at 1-2 mg mL^-1 injected into a 4.6 x 300 mm size-exclusion column, 0.5 mL min^-1, 10 mM MOPS, pH 7, 250 mM KCl; masses are averages, n = 3; both purified

binding: no binding (tested: 1–2 mg mL^−1)
Substance: BAM2 D490R mutant (Interface A) (from UniProt O65258 56-542) (enzyme)
